# Assay results published in patent US20110158992A1 (SCHERING, published 2011).
# These are yes or no findings as the source states them, for the method shown. Some entries that bind do so weakly or less than the wild type.
# T1: human IL-23R (human, UniProt Q5VWK5 24-353, limits assumed)
# T1 construct: also called huIL-23R; human interleukin-23R
# T1 sequence: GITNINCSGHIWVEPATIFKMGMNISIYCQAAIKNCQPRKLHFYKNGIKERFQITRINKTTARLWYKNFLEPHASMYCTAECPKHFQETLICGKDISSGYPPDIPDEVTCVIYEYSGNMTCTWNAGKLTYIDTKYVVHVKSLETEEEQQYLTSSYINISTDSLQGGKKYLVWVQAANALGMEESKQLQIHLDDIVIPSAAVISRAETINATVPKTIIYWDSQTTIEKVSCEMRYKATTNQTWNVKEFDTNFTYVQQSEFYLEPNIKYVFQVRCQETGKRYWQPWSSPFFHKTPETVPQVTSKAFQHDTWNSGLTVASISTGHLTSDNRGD
# T2: biotinylated huIL-23R-IgG (human, UniProt Q5VWK5 24-353, biotinylated)
# T2 construct: not shown: human IgG1 Fc
# T2 sequence: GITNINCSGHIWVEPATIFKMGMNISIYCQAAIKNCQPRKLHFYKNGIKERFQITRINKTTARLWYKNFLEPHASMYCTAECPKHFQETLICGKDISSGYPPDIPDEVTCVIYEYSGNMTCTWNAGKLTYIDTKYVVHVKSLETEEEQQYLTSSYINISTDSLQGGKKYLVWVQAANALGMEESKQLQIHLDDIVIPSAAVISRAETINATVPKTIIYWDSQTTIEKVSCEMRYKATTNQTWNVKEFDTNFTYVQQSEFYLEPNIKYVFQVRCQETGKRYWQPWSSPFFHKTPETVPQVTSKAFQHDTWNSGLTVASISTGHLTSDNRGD
# Biological target: T1, human IL-23R
# Test: BIAcore SPR
row,binding,Binder
1,binds,"hu8B10-b variant, VH N30D (antibody, V domains shown, also called VH: 8B10-b N30D / VL: 8B10-b) VH: QVQLVESGGGVVQPGRSLRLSCAASGFDFDSYGMSWVRQAPGKGLDLVADINSKSYNYATYYADSVKDRFTISRDNSKNTLYLQMNSLRAEDTAVYYCAVHHSDYFEYWGQGTLVTVSS VL: DIQMTQSPSSLSASVGDRVTITCRASQDIYTNLAWYQQKPGKAPKLLIYHASSLQDGVPSRFSGSGSGTDYTLTISSLQPEDFATYYCLQDSEYPPTFGQGTKVEIKR"
2,binds,"hu8B10-b variant, VL D56S (antibody, V domains shown, also called VH: 8B10-b / VL: 8B10-b D56S) VH: QVQLVESGGGVVQPGRSLRLSCAASGFDFNSYGMSWVRQAPGKGLDLVADINSKSYNYATYYADSVKDRFTISRDNSKNTLYLQMNSLRAEDTAVYYCAVHHSDYFEYWGQGTLVTVSS VL: DIQMTQSPSSLSASVGDRVTITCRASQDIYTNLAWYQQKPGKAPKLLIYHASSLQSGVPSRFSGSGSGTDYTLTISSLQPEDFATYYCLQDSEYPPTFGQGTKVEIKR"
3,binds,"hu8B10-b variant, VH N30S (antibody, V domains shown, also called VH: 8B10-b N30S / VL: 8B10-b) VH: QVQLVESGGGVVQPGRSLRLSCAASGFDFSSYGMSWVRQAPGKGLDLVADINSKSYNYATYYADSVKDRFTISRDNSKNTLYLQMNSLRAEDTAVYYCAVHHSDYFEYWGQGTLVTVSS VL: DIQMTQSPSSLSASVGDRVTITCRASQDIYTNLAWYQQKPGKAPKLLIYHASSLQDGVPSRFSGSGSGTDYTLTISSLQPEDFATYYCLQDSEYPPTFGQGTKVEIKR"
4,binds,"hu8B10-b variant, VH N57S (antibody, V domains shown, also called VH: 8B10-b N57S / VL: 8B10-b) VH: QVQLVESGGGVVQPGRSLRLSCAASGFDFNSYGMSWVRQAPGKGLDLVADINSKSYSYATYYADSVKDRFTISRDNSKNTLYLQMNSLRAEDTAVYYCAVHHSDYFEYWGQGTLVTVSS VL: DIQMTQSPSSLSASVGDRVTITCRASQDIYTNLAWYQQKPGKAPKLLIYHASSLQDGVPSRFSGSGSGTDYTLTISSLQPEDFATYYCLQDSEYPPTFGQGTKVEIKR"
5,binds,"hu8B10-b variant, VH N52S (antibody, V domains shown, also called VH: 8B10-b N52S / VL: 8B10-b) VH: QVQLVESGGGVVQPGRSLRLSCAASGFDFNSYGMSWVRQAPGKGLDLVADISSKSYNYATYYADSVKDRFTISRDNSKNTLYLQMNSLRAEDTAVYYCAVHHSDYFEYWGQGTLVTVSS VL: DIQMTQSPSSLSASVGDRVTITCRASQDIYTNLAWYQQKPGKAPKLLIYHASSLQDGVPSRFSGSGSGTDYTLTISSLQPEDFATYYCLQDSEYPPTFGQGTKVEIKR"
6,binds,"hu8B10-b variant, VL D56E (antibody, V domains shown, also called VH: 8B10-b / VL: 8B10-b D56E) VH: QVQLVESGGGVVQPGRSLRLSCAASGFDFNSYGMSWVRQAPGKGLDLVADINSKSYNYATYYADSVKDRFTISRDNSKNTLYLQMNSLRAEDTAVYYCAVHHSDYFEYWGQGTLVTVSS VL: DIQMTQSPSSLSASVGDRVTITCRASQDIYTNLAWYQQKPGKAPKLLIYHASSLQEGVPSRFSGSGSGTDYTLTISSLQPEDFATYYCLQDSEYPPTFGQGTKVEIKR"
7,binds,"hu8B10-b variant, VH N57D (antibody, V domains shown, also called VH: 8B10-b N57D / VL: 8B10-b) VH: QVQLVESGGGVVQPGRSLRLSCAASGFDFNSYGMSWVRQAPGKGLDLVADINSKSYDYATYYADSVKDRFTISRDNSKNTLYLQMNSLRAEDTAVYYCAVHHSDYFEYWGQGTLVTVSS VL: DIQMTQSPSSLSASVGDRVTITCRASQDIYTNLAWYQQKPGKAPKLLIYHASSLQDGVPSRFSGSGSGTDYTLTISSLQPEDFATYYCLQDSEYPPTFGQGTKVEIKR"

# Biological target: T2, biotinylated huIL-23R-IgG
# Test: ECL binding assay of Fab variants
row,binding,Binder
1,binds,"chimeric 8B10 Fab, VH H102W (Fab, V domains shown) VH: EVKLVESGGGLEQPKGSLKLSCTVSGFDFNSYGMSWVRQAPGKGLDLVADINSKSYNYATYYADSVKDRFTISRDDSQSMVYLEMDNLKTEDTALYYCTVHWSDYFEYWGQGVMVTVSS VL: DIQMTQSPASLSASLGETVSIECLASEDIYNNLAWYQQKPGKSPQLLIYHASSLQDGVPSRFSGSGSGTQYSLKINSLESEDAATYFCLQDSEYPPTFGGGTKLELKR"
2,binds,"chimeric 8B10 Fab, VH S55A (Fab, V domains shown, Rat V domains with human CH1 and CL; E. coli periplasmic extract) VH: EVKLVESGGGLEQPKGSLKLSCTVSGFDFNSYGMSWVRQAPGKGLDLVADINSKAYNYATYYADSVKDRFTISRDDSQSMVYLEMDNLKTEDTALYYCTVHHSDYFEYWGQGVMVTVSS VL: DIQMTQSPASLSASLGETVSIECLASEDIYNNLAWYQQKPGKSPQLLIYHASSLQDGVPSRFSGSGSGTQYSLKINSLESEDAATYFCLQDSEYPPTFGGGTKLELKR"
3,binds,"chimeric 8B10 Fab, VH I51A (Fab, V domains shown, Rat V domains with human CH1 and CL; E. coli periplasmic extract) VH: EVKLVESGGGLEQPKGSLKLSCTVSGFDFNSYGMSWVRQAPGKGLDLVADANSKSYNYATYYADSVKDRFTISRDDSQSMVYLEMDNLKTEDTALYYCTVHHSDYFEYWGQGVMVTVSS VL: DIQMTQSPASLSASLGETVSIECLASEDIYNNLAWYQQKPGKSPQLLIYHASSLQDGVPSRFSGSGSGTQYSLKINSLESEDAATYFCLQDSEYPPTFGGGTKLELKR"
4,binds,"chimeric 8B10 Fab, VL N31T (Fab, V domains shown, Rat V domains with human CH1 and CL; E. coli periplasmic extract) VH: EVKLVESGGGLEQPKGSLKLSCTVSGFDFNSYGMSWVRQAPGKGLDLVADINSKSYNYATYYADSVKDRFTISRDDSQSMVYLEMDNLKTEDTALYYCTVHHSDYFEYWGQGVMVTVSS VL: DIQMTQSPASLSASLGETVSIECLASEDIYTNLAWYQQKPGKSPQLLIYHASSLQDGVPSRFSGSGSGTQYSLKINSLESEDAATYFCLQDSEYPPTFGGGTKLELKR"
5,binds,"chimeric 8B10 Fab, VH S31A (Fab, V domains shown, Rat V domains with human CH1 and CL; E. coli periplasmic extract) VH: EVKLVESGGGLEQPKGSLKLSCTVSGFDFNAYGMSWVRQAPGKGLDLVADINSKSYNYATYYADSVKDRFTISRDDSQSMVYLEMDNLKTEDTALYYCTVHHSDYFEYWGQGVMVTVSS VL: DIQMTQSPASLSASLGETVSIECLASEDIYNNLAWYQQKPGKSPQLLIYHASSLQDGVPSRFSGSGSGTQYSLKINSLESEDAATYFCLQDSEYPPTFGGGTKLELKR"
6,binds,"chimeric 8B10 Fab, VL N31A (Fab, V domains shown, Rat V domains with human CH1 and CL; E. coli periplasmic extract) VH: EVKLVESGGGLEQPKGSLKLSCTVSGFDFNSYGMSWVRQAPGKGLDLVADINSKSYNYATYYADSVKDRFTISRDDSQSMVYLEMDNLKTEDTALYYCTVHHSDYFEYWGQGVMVTVSS VL: DIQMTQSPASLSASLGETVSIECLASEDIYANLAWYQQKPGKSPQLLIYHASSLQDGVPSRFSGSGSGTQYSLKINSLESEDAATYFCLQDSEYPPTFGGGTKLELKR"
